The whole screen tested about 320,000 compounds, of which about 620 (0.19%) were called active. This list was built around the results that the source calls inconclusive (neither active nor inactive); the mix of calls is not that of the screen. Cut-off read from the data, not from the text of the source: active = activation above about 80%; inconclusive = between about 30% and that limit; inactive = weaker than that.
Biological target: Transient receptor potential cation channel subfamily V member 1 (Homo sapiens) (UniProt Q8NER1)
Assay: HTS Assay for Compounds that Act as Agonists of the Vanilloid Receptor 1; note: 0% is about no effect
Conditions: TRPV1-expressing cells, Fluo-8 calcium influx, agonist mode; at 8.33 µM, active compounds read high
How it was run: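 TRPV1-expressing cells were cultured overnight at 35.5C and loaded with Fluo-8 calcium dye for 40 to 90 min at room temperature. After a 10 s baseline, compound was added and calcium influx was read kinetically for 3 min (ex 480/em 520 nm).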

By UniProt entry, the sequences of proteins in these tests, tags left out.
UniProt Q8NER1, whole entry, looked up: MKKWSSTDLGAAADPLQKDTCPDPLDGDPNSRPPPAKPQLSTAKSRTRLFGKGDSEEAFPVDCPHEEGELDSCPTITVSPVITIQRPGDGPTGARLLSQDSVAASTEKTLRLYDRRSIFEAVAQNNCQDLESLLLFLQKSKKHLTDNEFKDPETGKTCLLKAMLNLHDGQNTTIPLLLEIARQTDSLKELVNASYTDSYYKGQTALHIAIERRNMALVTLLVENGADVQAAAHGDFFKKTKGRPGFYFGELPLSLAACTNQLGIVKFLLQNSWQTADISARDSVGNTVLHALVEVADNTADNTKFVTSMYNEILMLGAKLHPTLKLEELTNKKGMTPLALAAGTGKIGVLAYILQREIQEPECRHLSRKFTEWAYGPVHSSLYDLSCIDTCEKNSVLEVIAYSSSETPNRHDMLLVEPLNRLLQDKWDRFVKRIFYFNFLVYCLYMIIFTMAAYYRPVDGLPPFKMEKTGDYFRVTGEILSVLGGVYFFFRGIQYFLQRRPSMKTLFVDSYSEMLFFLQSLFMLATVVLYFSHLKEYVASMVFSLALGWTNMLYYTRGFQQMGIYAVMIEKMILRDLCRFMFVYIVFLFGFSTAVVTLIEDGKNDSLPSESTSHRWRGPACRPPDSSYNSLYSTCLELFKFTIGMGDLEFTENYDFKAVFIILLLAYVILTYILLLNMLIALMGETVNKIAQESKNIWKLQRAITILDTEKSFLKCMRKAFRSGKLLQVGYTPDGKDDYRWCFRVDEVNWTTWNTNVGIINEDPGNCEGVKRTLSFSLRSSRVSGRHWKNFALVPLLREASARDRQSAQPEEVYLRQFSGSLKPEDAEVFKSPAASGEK

| SMILES | activation |
| --- | --- |
| CCOC(=O)/C(=N\Nc1ccccc1Cl)N1CC(C)OC(C)C1 (stereo not given) | inactive: 18.5% |
| c1ccc(Oc2nc(-c3cccnc3)nc3ccccc23)cc1 | inconclusive: 42.7% |
| Cc1ccc2[nH]c(=O)c(CN(CC3CCCO3)C(=S)Nc3ccccc3)cc2c1 (stereo not given) | inconclusive: 47.8% |
| CC1CCC(C(C)C)C(OC(=O)COC(=O)c2ccc(N)cc2)C1 (stereo not given) | inconclusive: 32.4% |
| COc1ccccc1CNC(=O)COC(=O)c1cc([N+](=O)[O-])ccc1N1CCOCC1 | inconclusive: 51.8% |
| CCC(C)c1ccc(OCC(=O)Nc2ccc3c(c2)C(=O)NC3=O)cc1 (stereo not given) | inconclusive: 33.9% |
| O=C(COc1ccccc1)NCC(c1ccco1)N1CCN(c2ccccc2F)CC1 (stereo not given) | inactive: 21.7% |
| O=C(COc1ccc2oc3c(c2c1)CCCC3)Nc1ccccn1 | inconclusive: 34.8% |
| O=C(Nc1cccc([N+](=O)[O-])c1)Nc1cccc([N+](=O)[O-])c1 | inconclusive: 47.3% |
| Cc1cc(Cl)ccc1Oc1ncnc2oc(-c3ccccc3)cc12 | inactive: 5.26% |
| Oc1ccc2ccccc2c1/C=N/c1nccs1 | inactive: 2.59% |
| O=C(CCCSc1nnnn1-c1ccccc1)c1ccc(F)cc1 | inconclusive: 41.9% |
| C=CCN(CC=C)S(=O)(=O)c1ccc(NC(=S)NC(=O)Cc2ccc(OC)cc2)cc1 | inconclusive: 44.4% |
| COc1ccc(OC)c(Nc2c3ccccc3nc3ccccc23)c1 | inactive: 0.486% |
| COc1cc(/C=N/N=C(N)N)ccc1OCc1ccc(Cl)cc1 | inactive: -3.15% |
| C=CCN(c1ccccc1)S(=O)(=O)c1cccc(C(=O)Nc2ccc(N3CCOCC3)cc2)c1 | inconclusive: 55.1% |
| O=C(Nc1ccc(F)cc1F)c1ccc(-n2cccn2)nc1 | inconclusive: 41.1% |
| CCc1ccc(C(=O)NCc2ccc(Cl)cc2Cl)cc1 | inconclusive: 46.6% |
| O=C(NCc1ccccn1)c1ccc(Cl)c(S(=O)(=O)N2CCCCCC2)c1 | inconclusive: 38.2% |
| O=C(Nc1ccc2c(c1)CCC2)C1CCCN(c2ncccn2)C1 (stereo not given) | inconclusive: 60% |

4 compounds picked at random from the list so far, as already listed:

| SMILES | activation |
| --- | --- |
| C=CCN(c1ccccc1)S(=O)(=O)c1cccc(C(=O)Nc2ccc(N3CCOCC3)cc2)c1 | inconclusive: 55.1% |
| O=C(Nc1cccc([N+](=O)[O-])c1)Nc1cccc([N+](=O)[O-])c1 | inconclusive: 47.3% |
| O=C(CCCSc1nnnn1-c1ccccc1)c1ccc(F)cc1 | inconclusive: 41.9% |
| COc1cc(/C=N/N=C(N)N)ccc1OCc1ccc(Cl)cc1 | inactive: -3.15% |

Remaining list, next part:

| SMILES | activation |
| --- | --- |
| Cc1ccc(NS(=O)(=O)c2ccc(C(=O)NCc3cccnc3)cc2)cc1 | inconclusive: 48.9% |
| Cc1ccc(NC(=O)CN2C(=O)NC3(CCCCCCC3)C2=O)cc1C | inconclusive: 37.3% |
| COc1ccc(C(CNc2nc(-c3cccnc3)nc3ccccc23)N(C)C)cc1 (stereo not given) | inactive: -1.74% |
| O=C(O)CN1CCN(Cc2ccc(Cl)cc2)C1=O | inactive: 0.817% |
| Cc1oc(-c2ccccc2)nc1C(=O)N1CCN(c2ccc(F)cc2)CC1 | inconclusive: 40.9% |
| Cc1nc(N2CCN(C(=O)c3ccco3)CC2)c(C#N)c2c1CCCC2 | inconclusive: 44.3% |
| CC[n+]1oc(-c2ccccc2)cc1C | inconclusive: 47.6% |
| CCN1/C(=C\c2ccc3ccccc3[n+]2CC)Sc2cc(C)ccc21 | inconclusive: 32.4% |
| CC(C(=O)Nc1ccccc1)c1ccc(-c2ccccc2)c(F)c1 (stereo not given) | inconclusive: 34.9% |
| COc1ccc(-c2noc(-c3ccccc3C(=O)Nc3cccnc3)n2)cc1OC | inconclusive: 49.7% |
| COc1cccc(C(=O)NCCSCc2ccccc2Cl)c1 | inconclusive: 36.3% |
| CC(=O)C1=C(Nc2ccc(C)cc2)CC(C)(O)C(C(C)=O)C1c1ccco1 (stereo not given) | inconclusive: 31.3% |
| CC(C)(C)OC(=O)CNC(=O)c1[nH]cnc1C(=O)NC(c1ccccc1)c1ccccc1 | inconclusive: 47.5% |
| Cc1ccc(NC(N)=S)cc1C | inactive: 1.11% |
| CCCCn1c(SCC(=O)/C(C#N)=C(\C)N)nc2ccccc2c1=O | inconclusive: 42.1% |
| O=C(CCCC(=O)OCC(Cl)=C(Cl)Cl)Nc1ccccc1F | inconclusive: 65.1% |
| Cc1ccc(C(=O)c2oc3nc(C)cc(C)c3c2N)cc1 | inconclusive: 32.2% |
| Cc1ccc(NC(=O)C2CCN(C(=O)c3ccco3)CC2)cc1 | inactive: 3.96% |
| N#CC1=C(N)Oc2cc(N)ccc2C1c1ccccc1F (stereo not given) | inactive: 3.51% |
| O=C(c1cn(-c2ccccc2)nc1-c1ccc(F)cc1)N1CCCCC1 | inconclusive: 41.8% |

| SMILES | activation |
| --- | --- |
| Cc1nnc2sc(SCc3ccccc3)nn2c1=O | inactive: -2.64% |
| Cc1ccc(/C=N/NC(=O)Cc2ccc(Cl)cc2)s1 | inconclusive: 39.6% |
| Cc1ccc(NC(=O)c2oc3ccccc3c2NC(=O)C2CCCO2)cc1C (stereo not given) | inconclusive: 42.8% |
| O=S(=O)(NCc1ccccc1)c1cccs1 | inactive: -3.57% |
| CCC1CN(C(=O)NCc2ccc(C)cc2)c2cc(C)ccc2O1 (stereo not given) | inconclusive: 48.4% |
| CC(=O)Nc1ccc(NC(=O)C(C)Oc2ccc(Cl)cc2Cl)cc1 (stereo not given) | inactive: 0.477% |
| Cc1[nH]c2ccccc2c1SCC(=O)N1CCOCC1 | inactive: 0.863% |
| COc1cccc(/C=C2\SC(N3CCC(C)CC3)=NC2=O)c1OC | active: 93% |
| Cc1nn(-c2ccc(Cl)cc2Cl)c(=O)c2ccccc12 | inactive: -4.77% |
| CCCc1c(C(=O)Nc2ccc(F)cc2)cnn1-c1ccccc1 | inconclusive: 70.1% |
| O=C(/C=C/c1ccc(Cl)c(Cl)c1)NC1=NCCS1 | inconclusive: 44.3% |
| O=C(COC(=O)C1CCCC1)NCc1ccc(Cl)cc1 | inconclusive: 37.3% |
| c1ccc(CCNc2ncnc3nc[nH]c23)cc1 | inconclusive: 39% |
| Cc1cc(C(=O)N/N=C/c2ccc([N+](=O)[O-])s2)n[nH]1 | inconclusive: 43.8% |
| O=C(Nc1ccccc1F)c1ccc2ncsc2c1 | inconclusive: 47.6% |
| Cc1ccc(-c2nc3ccccc3[nH]2)cc1NC(=O)/C=C/c1ccco1 | inactive: 8.78% |
| Cc1nc(SC(C)C(=O)c2c(N)n(C)c(=O)n(C)c2=O)c2c(C)c(C)sc2n1 (stereo not given) | inconclusive: 72% |
| Cc1ccc(-c2ccc(C(=O)Nc3cccc(F)c3)o2)c2ccccc12 | inconclusive: 51.6% |
| COc1ccccc1NC(=O)COc1ccc2ccccc2c1 | inconclusive: 33.1% |
| CSc1cccc(NC(=O)c2ccccn2)c1 | inconclusive: 33.7% |
